These are yes or no findings as the source states them, for the method shown. Binding seen in cells or lysates may run through a third protein. Some binding calls cover weakened binding; strength is not graded here. Sequences can lack the tags named with a protein.
Biological target: Flag-OXSR1 (Oxidative Stress Responsive Kinase 1) (UniProt O95747)
Test: co-IP; HEK-293 cells co-transfected with Flag-OXSR1 and HA-RELT constructs (5 µg each); lysates 24 h after transfection; FLAG immunoprecipitation kit; Western blot with anti-HA and anti-FLAG

Chains of the proteins cited; added tags and fusions are not shown.
UniProt O95747: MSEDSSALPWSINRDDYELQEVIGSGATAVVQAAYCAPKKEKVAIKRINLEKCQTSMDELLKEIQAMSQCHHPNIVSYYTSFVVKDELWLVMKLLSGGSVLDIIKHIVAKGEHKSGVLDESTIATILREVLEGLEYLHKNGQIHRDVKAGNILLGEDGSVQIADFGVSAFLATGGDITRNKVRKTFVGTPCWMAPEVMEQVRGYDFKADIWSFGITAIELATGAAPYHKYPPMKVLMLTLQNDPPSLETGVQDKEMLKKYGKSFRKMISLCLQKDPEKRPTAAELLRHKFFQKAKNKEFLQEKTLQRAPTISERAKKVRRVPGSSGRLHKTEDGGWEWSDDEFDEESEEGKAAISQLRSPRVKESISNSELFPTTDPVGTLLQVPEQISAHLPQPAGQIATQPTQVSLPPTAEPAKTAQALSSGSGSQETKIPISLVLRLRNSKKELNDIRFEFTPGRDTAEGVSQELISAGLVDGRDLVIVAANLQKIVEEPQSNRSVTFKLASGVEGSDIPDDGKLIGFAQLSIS

Row | binding | Binder
1 | binds | HA-RELT (Receptor Expressed in Lymphoid Tissues), wild type (receptor, UniProt Q969Z4 26-430) STTLWQCPPGEEPDLDPGQGTLCRPCPPGTFSAAWGSSPCQPHARCSLWRRLEAQVGMATRDTLCGDCWPGWFGPWGVPRVPCQPCSWAPLGTHGCDEWGRRARRGVEVAAGASSGGETRQPGNGTRAGGPEETAAQYAVIAIVPVFCLMGLLGILVCNLLKRKGYHCTAHKEVGPGPGGGGSGINPAYRTEDANEDTIGVLVRLITEKKENAAALEELLKEYHSKQLVQTSHRPVSKLPPAPPNVPHICPHRHHLHTVQGLASLSGPCCSRCSQKKWPEVLLSPEAVAATTPVPSLLPNPTRVPKAGAKAGRQGEITILSVGRFRVARIPEQRTSSMVSEVKTITEAGPSWGDLPDSPQPGLPPEQQALLGSGGSRTKWLKPPAENKAEENRYVVRLSESNLVI
2 | no binding | HA-RELT RARA mutant (RFRV → RARA at amino acids 349–352) (receptor, UniProt Q969Z4 26-430) STTLWQCPPGEEPDLDPGQGTLCRPCPPGTFSAAWGSSPCQPHARCSLWRRLEAQVGMATRDTLCGDCWPGWFGPWGVPRVPCQPCSWAPLGTHGCDEWGRRARRGVEVAAGASSGGETRQPGNGTRAGGPEETAAQYAVIAIVPVFCLMGLLGILVCNLLKRKGYHCTAHKEVGPGPGGGGSGINPAYRTEDANEDTIGVLVRLITEKKENAAALEELLKEYHSKQLVQTSHRPVSKLPPAPPNVPHICPHRHHLHTVQGLASLSGPCCSRCSQKKWPEVLLSPEAVAATTPVPSLLPNPTRVPKAGAKAGRQGEITILSVGRARAARIPEQRTSSMVSEVKTITEAGPSWGDLPDSPQPGLPPEQQALLGSGGSRTKWLKPPAENKAEENRYVVRLSESNLVI

Reference: PMC11727564
